# Results of single-concentration screens

Mtb cholesterol medium: 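Whole-cell growth test on Mycobacterium tuberculosis, read after 4 days in a medium based on cholesterol and the lipid DPPC; the read-out is not stated. Tested at 50 µM. Higher reads as more growth inhibition (inferred: compounds with an IC50 in retests scored well above the rest). About 69,000 compounds were tested under these conditions; 0.54% (about 370) showed 50% or more at least once.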
Mtb glucose medium: 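Whole-cell growth test on Mycobacterium tuberculosis, read after 3 days in glucose-containing 7H9 medium; the read-out is not stated. Compounds at 50 µM. The record gives no direction; compounds that gave an IC50 in retests scored well above the rest, so higher reads as more growth inhibition. Of about 69,000 compounds tested this way, about 760 (1.1%) reached 50% or more in at least one test.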

Values are the deposited “Percent Effect”, in %. The controls that fix the scale are not given in the record; negative values are as filed. Compounds were drawn at random from those tested, without regard to their results. Two or more numbers in one place are separate tests of the same structure; such repeats can differ widely.

SMILES	Mtb cholesterol medium	Mtb glucose medium
CC(C)N(C(=O)CCc1cccc(F)c1)C1CCOCC1	-3.576	-20.53
O=C(c1ccoc1)N1CCc2ncnc(NCc3ccccn3)c2CC1	-3.637	0.8292
O=C(O)C(F)(F)F.O=C(O)C(F)(F)F.O=C(O)C(F)(F)F.[H][C@@]12CCN(Cc3nccs3)C[C@]1([H])[C@@H](CNc1ncccn1)OC2	-29.26	-31.74
CCn1c(C)nnc1SCCNc1cc(OC)ncn1	12.52	-3.005 & 7.851
Cc1nn(C)c(Cl)c1C1CCCN1C(=O)c1ccc2nncn2c1 (stereo unspecified)	22.74	-30.42
O=C(O)C(F)(F)F.O=C(O)C(F)(F)F.c1cncc(COCc2nnc3n2CCN(Cc2ccco2)C3)c1	-12.21	-48.45 & -8.8
CC(Cc1c(F)cccc1F)NC(=O)NCc1ncnn1C (stereo unspecified)	0.5792 & 13.3	-8.137
CCn1nc(C)c(CN2CCCC(c3ccc(C(=O)O)cc3)C2)c1C (stereo unspecified)	-17.6	13.62
COCCNC(=O)C1(CCCc2cccnc2)CCCN1C (stereo unspecified)	-6.353	-24.42
Cc1ncc(CNC2CCCN(Cc3noc(C4CC4)n3)C2)s1 (stereo unspecified)	-22.09	-1.397
CNC(=O)[C@@H]1C[C@H](N)CN1S(=O)(=O)c1cc(Cl)c(Cl)s1	17.75	16.59
[H][C@@]12CS(=O)(=O)C[C@]1([H])N(C(=O)C1(C)CC1)CCN2Cc1[nH]cnc1C	-7.999	-1.051
O=C(c1ccoc1)N(Cc1cccnc1)C1CC1	-20.79	-22.4
Cc1ccc(C2CCCCCN2Cc2cn(C)nc2C)s1 (stereo unspecified)	21.8	32.38
O=C(CCNC(=O)c1sccc1-c1ccccc1)NC1CCS(=O)(=O)C1 (stereo unspecified)	-13.16	1.801
CC(C)(C)c1nnc(CNc2cc(F)ccc2OCC2CCCO2)o1 (stereo unspecified)	-10.55	-62.18 & -5.878
Cc1cccc(N2CC3(COCCN(c4ccncn4)C3)OCC2=O)c1 (stereo unspecified)	4.319	9.342
Cc1nc(C)n(CC2CCCCN2CC(=O)NC2CCOCC2)n1 (stereo unspecified)	-0.7956	12.57
COCCN(Cc1sccc1C)C(=O)c1c(O)cccc1F	-6.385	19.65
CN1CC(C(=O)NC(C)(C)CNC(=O)OC(C)(C)C)CC1=O (stereo unspecified)	-19.04	-6.991 & -22.84
COc1cccc(OC2CN(C(=O)CCn3cnnn3)C2)c1	15.35	0.3923 & 7.008
CC(=O)N1CCC(c2cccc(Oc3ccccc3)n2)CC1	18.28	19.86
COC(=O)c1cc2c(=O)n(C3CCCC3)ccc2nc1C	7.773	8.692
CCOc1ncccc1C(=O)NCC(O)c1ccc(F)c(F)c1 (stereo unspecified)	14.21	2.53
O=C(c1ccc2cc[nH]c2c1)N1CCC(Nc2cccnn2)CC1	-3.229	11.12
c1ccc(C[C@H]2CN(Cc3nccs3)CC[C@H]2OCC2CC2)cc1	38.24	26.99
NC(=O)C1CCN(C(=O)NCCOc2ccc3c(c2)CCC3)CC1	-4.085	12.05
COCCCC(=O)Nc1[nH]nc(-c2ccncc2)c1C	-17.57	-2.464 & 7.082
CCOCCN1CCC(c2cnccn2)CC1	9.289 & -8.205	-23.81
CCC(CO)N(Cc1ccccn1)Cc1ccc(-c2ccn[nH]2)s1 (stereo unspecified)	5.146	33.72
Cc1cc(N2CCN(Cc3nccn3C)CC2)cc(C)n1	-42.89	-22.02 & -28.64
CCN(CC)S(=O)(=O)N1CCCC(c2ncc3c(n2)CCN(C)C3)C1 (stereo unspecified)	-22.63 & -33.33	-30.02
O=C(c1csc(-c2ccccn2)n1)N1CCCC1Cn1cccn1 (stereo unspecified)	-0.282	-1.194
COc1cc(NCc2ccc(Cl)cc2)c(-c2nn[nH]n2)cc1OC	-9.504	-4.59
[H][C@@]12CNCC[C@]1(O)CCN(Cc1c(OCCC)ccc3ccccc13)C2	-5.118	23.05 & 36.36
CNc1ncc(C(=O)N2CCC(CCc3ccccc3)CC2)cn1	-19.94	10.03 & -6.323
CN1CCN(C(=O)NC2CC2)Cc2cccnc21.O=C(O)C(F)(F)F	-11.43	-0.2836
Cc1nc(C)n(CC2CN(Cc3ccccc3OC(C)C)CCO2)n1 (stereo unspecified)	-12.46	43.96
Cl.O=C1CC2(CCNCC2)C(=O)N1c1cccc(F)c1	0.01537	4.161
Cc1cc(NC(=O)c2nn(C3CCS(=O)(=O)C3)c3c2CCCC3)no1 (stereo unspecified)	-3.652	4.609
CS(=O)(=O)N1CCC(c2ccncn2)CC1	12.54	-14.03
[H][C@@]12CCN(C(=O)C3CCCC3)[C@]1([H])C(=O)N(c1ccc(C)cc1)C(=O)N2	3.569	-0.08466 & -3.337
CCC1c2ccccc2CCN1CCCS(C)(=O)=O (stereo unspecified)	-5.675	-6.559
COc1nc(C)ccc1CNC(=O)NC(c1ncc(C)s1)C1CC1 (stereo unspecified)	6.155	-18.5
Cn1cnc(S(=O)(=O)N2CCSC3(CCCCC3)C2)c1	3.01	4.543
CC1N(CC2CC2)C(=O)COC12CCN(C(=O)c1cscn1)CC2 (stereo unspecified)	-0.03809	0.4494 & -24.76
Cn1ccnc1CNc1nccc(-c2ncnn2C)n1	-13.71	22.31
CCC[C@@H]1CN(C(=O)c2cc(-c3cccs3)n(C)n2)C[C@H]1N(C)C	-11.46	3.735
N#Cc1ccc(N2CCCN(CC(N)=O)CC2)cc1	-1.386	15.04
COCCN1C2(CCN(C(=O)c3cccs3)C2)c2ccccc2S1(=O)=O (stereo unspecified)	18.15	6.616
CNC(=O)C1CCCN1c1nc(C)c2ccccc2n1 (stereo unspecified)	-6.952	15.72
CC(C)(C)C(=O)N1CCC2(CC1)CC(Oc1ccccc1)CO2 (stereo unspecified)	-19.36	-1.873 & -20.94
CCCS(=O)(=O)N1CCn2cc(CNc3ccccn3)nc2C1.O=C(O)C(F)(F)F	0.9726	-0.3125 & 0.8316
CNc1nccnc1C1CN(Cc2ccc(OCC(=O)O)cc2)CCO1 (stereo unspecified)	-21.69	-26.62
Cc1c(CN2C[C@H](O)[C@@H](N3CCOCC3)C2)[nH]c2ccc(F)cc12	5.258	-42.62
O=C(NCCN1CCOCC1)NCC(O)c1cccc(F)c1 (stereo unspecified)	9.496	29.26
CCS(=O)(=O)N1Cc2nccn2CC(CN2CCCC2)C1 (stereo unspecified)	-9.282 & -6.38	-14.17 & -4.899
O=C(O)C(F)(F)F.O=C1CCC2(CCCN(C(=O)c3ccccn3)CC2)N1 (stereo unspecified)	11.03	-43.09
Cc1ncc2c(n1)CN(Cc1nc3c(F)cccc3[nH]1)CC2	-14.57	-28.39
O=c1cc(-c2ccncc2)nc(-c2ccc(CN3CC[C@H](O)C3)cc2)[nH]1	0.9537 & 6.784	-17.34
COc1ccccc1CCC(=O)N1C[C@H](c2ccccc2)[C@@H](N)C1	7.388	14.97
CSCCCN(CCN1CCOCC1)Cc1ccco1	-16.54	-28.19 & -5.651
O=C(CSC1=NS(=O)(=O)c2cc(F)ccc2N1)Nc1ccc(Cl)cc1	-12.75	0.5086
COc1ccccc1CN1CC[C@]2(C[C@H](OC)CO2)C1.O=C(O)C(F)(F)F	5.879	3.373
Cc1ccc(NC(=O)C2CSCN2C(=O)c2cccnc2)c(C)c1 (stereo unspecified)	-19.06	-25.5
Cc1nc(C)n(C2CCCN(C(=O)CCCOc3ccccc3)C2)n1 (stereo unspecified)	-2.839	2.785
[H][C@@]12C[C@H](C(=O)N(C)C)[C@@]([H])(CN(c3ncccn3)C1)O2	-24.05	-1.498 & -6.567
Cc1nccn1-c1nccnc1C1CCCN(C2CCCC2)C1 (stereo unspecified)	4.944 & -14.27	-15.36

6 of the entries, repeated:

CCS(=O)(=O)N1Cc2nccn2CC(CN2CCCC2)C1 (stereo unspecified) read Mtb cholesterol medium: -9.282% & -6.38%; Mtb glucose medium: -14.17% & -4.899%.
CSCCCN(CCN1CCOCC1)Cc1ccco1 read Mtb cholesterol medium: -16.54%; Mtb glucose medium: -28.19% & -5.651%.
Cl.O=C1CC2(CCNCC2)C(=O)N1c1cccc(F)c1 read Mtb cholesterol medium: 0.01537%; Mtb glucose medium: 4.161%.
Cc1cccc(N2CC3(COCCN(c4ccncn4)C3)OCC2=O)c1 (stereo unspecified) read Mtb cholesterol medium: 4.319%; Mtb glucose medium: 9.342%.
Cc1cc(NC(=O)c2nn(C3CCS(=O)(=O)C3)c3c2CCCC3)no1 (stereo unspecified) read Mtb cholesterol medium: -3.652%; Mtb glucose medium: 4.609%.
O=C(CCNC(=O)c1sccc1-c1ccccc1)NC1CCS(=O)(=O)C1 (stereo unspecified) read Mtb cholesterol medium: -13.16%; Mtb glucose medium: 1.801%.

The values are deposited in ChEMBL (CHEMBL3988442, “University of Dundee, Small-Polar-MMV Screening Library” (2021)).